Measured data: PubChem BioAssay AID504784 (Drosophila RNAi Screening Center, 2011)

Aim: 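Fly genes whose silencing alters how much lipid cells keep in droplets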 (primary screen)
Cell system: Drosophila Kc167 embryonic cells
Knock-down reagent: long dsRNA against Drosophila genes, about 250 ng dsRNA per well
Time to read-out: 4 days
Treatment: cells fed 400 µM oleic acid bound to BSA
Measured: 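Microscope images give a droplet-to-nucleus area ratio, taken as log and converted to a screen-wide B-score; higher values mean greater lipid storage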
Reading the numbers: droplet/nuclear area B-score: higher = more stored lipid (overstorage)
The screen tested about 17,000 reagents; shown is a random part of those that have a named target and a result. 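Each column is one replicate's B-score; the combined score over replicates was not deposited, so single values may mislead.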 Reagents against one gene are numbered here. Further read-outs or replicates are left out here.

For defl, the entry reads droplet/nuclear area B-score, replicate 1 = 3.05.
After knock-down of CG11583 the results were droplet/nuclear area B-score, replicate 1 = 0.992.
Against CG31157, the values are droplet/nuclear area B-score, replicate 1 = 0.439.
CG11113 scored droplet/nuclear area B-score, replicate 1 = -0.835.
With knock-down of CG15464 (retired record) #1, the screen gave droplet/nuclear area B-score, replicate 1 = 0.176.
Depletion of CG15464 (retired record) #2 resulted in: droplet/nuclear area B-score, replicate 1 = 1.03.
Knock-down of CG14238 resulted in: droplet/nuclear area B-score, replicate 1 = -1.3.
Against CG12869, the values are droplet/nuclear area B-score, replicate 1 = -0.957.
For CG43861, the entry reads droplet/nuclear area B-score, replicate 1 = -0.981.
After knock-down of mah, the record shows droplet/nuclear area B-score, replicate 1 = -0.222.
After knock-down of Corp, the screen gave droplet/nuclear area B-score, replicate 1 = 1.96.
After knock-down of CG6470, the record shows droplet/nuclear area B-score, replicate 1 = 0.0611.
CG42594 #1 showed droplet/nuclear area B-score, replicate 1 = -4.34.
Against CG42594 #2 the deposit lists droplet/nuclear area B-score, replicate 1 = 0.0678.
After knock-down of CG42594 #3 the results were droplet/nuclear area B-score, replicate 1 = -1.27.
Ubc84D showed droplet/nuclear area B-score, replicate 1 = 0.786.
